# Paper doi:10.1101/2022.12.08.519103 (bioRxiv, 2022)
# Chains of the proteins cited; added tags and fusions are not shown. Lines headed by an entry give the natural chain unless they say otherwise; changes in a name come on top.
# UniProt P31946: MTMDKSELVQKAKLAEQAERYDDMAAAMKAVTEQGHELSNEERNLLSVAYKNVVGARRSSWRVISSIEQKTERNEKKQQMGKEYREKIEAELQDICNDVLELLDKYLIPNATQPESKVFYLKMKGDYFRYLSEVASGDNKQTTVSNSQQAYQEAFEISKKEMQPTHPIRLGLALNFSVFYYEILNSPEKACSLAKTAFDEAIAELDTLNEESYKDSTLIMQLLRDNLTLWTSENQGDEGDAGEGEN
# UniProt P63104: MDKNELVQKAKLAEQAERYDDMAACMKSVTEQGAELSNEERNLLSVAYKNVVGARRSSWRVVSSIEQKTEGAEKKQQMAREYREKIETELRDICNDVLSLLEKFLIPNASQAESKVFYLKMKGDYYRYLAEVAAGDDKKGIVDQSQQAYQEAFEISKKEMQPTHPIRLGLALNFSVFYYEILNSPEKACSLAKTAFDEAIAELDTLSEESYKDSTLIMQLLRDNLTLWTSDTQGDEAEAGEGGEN
# UniProt Q00537: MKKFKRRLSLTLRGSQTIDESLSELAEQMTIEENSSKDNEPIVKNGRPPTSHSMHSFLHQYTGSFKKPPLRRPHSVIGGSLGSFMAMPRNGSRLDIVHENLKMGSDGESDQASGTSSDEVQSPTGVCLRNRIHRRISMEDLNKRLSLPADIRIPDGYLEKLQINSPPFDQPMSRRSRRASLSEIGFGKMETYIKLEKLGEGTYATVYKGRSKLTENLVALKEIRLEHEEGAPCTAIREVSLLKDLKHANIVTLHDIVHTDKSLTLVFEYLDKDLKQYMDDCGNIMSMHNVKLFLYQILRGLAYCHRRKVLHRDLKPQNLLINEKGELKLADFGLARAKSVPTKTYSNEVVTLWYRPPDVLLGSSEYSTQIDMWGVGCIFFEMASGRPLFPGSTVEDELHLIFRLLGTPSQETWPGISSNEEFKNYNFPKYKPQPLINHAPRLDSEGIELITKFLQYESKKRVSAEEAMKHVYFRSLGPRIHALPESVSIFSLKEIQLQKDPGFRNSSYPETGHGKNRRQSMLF
# UniProt Q8WUI4: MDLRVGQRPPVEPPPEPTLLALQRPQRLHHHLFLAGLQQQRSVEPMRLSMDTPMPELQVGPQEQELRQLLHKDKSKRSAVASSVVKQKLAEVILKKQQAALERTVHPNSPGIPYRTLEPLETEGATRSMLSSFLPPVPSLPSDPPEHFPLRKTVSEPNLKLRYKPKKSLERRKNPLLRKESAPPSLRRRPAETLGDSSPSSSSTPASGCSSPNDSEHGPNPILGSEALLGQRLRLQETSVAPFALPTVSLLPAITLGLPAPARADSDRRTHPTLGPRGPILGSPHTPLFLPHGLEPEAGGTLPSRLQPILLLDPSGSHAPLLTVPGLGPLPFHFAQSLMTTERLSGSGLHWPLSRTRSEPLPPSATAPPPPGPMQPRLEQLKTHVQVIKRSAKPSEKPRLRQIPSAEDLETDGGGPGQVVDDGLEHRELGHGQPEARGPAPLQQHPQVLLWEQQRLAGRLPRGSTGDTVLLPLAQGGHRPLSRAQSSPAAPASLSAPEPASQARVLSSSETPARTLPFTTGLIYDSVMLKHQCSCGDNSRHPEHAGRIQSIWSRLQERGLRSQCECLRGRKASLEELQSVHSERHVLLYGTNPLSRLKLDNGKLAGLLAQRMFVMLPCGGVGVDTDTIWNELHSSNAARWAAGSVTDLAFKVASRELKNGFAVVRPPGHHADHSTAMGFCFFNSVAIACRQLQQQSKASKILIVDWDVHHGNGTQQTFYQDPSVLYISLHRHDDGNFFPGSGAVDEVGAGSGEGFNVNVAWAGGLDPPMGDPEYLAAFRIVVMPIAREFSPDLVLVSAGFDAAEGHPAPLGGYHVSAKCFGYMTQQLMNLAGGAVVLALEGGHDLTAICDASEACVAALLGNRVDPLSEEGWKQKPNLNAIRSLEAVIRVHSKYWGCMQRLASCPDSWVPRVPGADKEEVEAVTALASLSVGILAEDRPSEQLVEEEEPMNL
# Results are given in words; binding and its absence hold for the method and conditions named. Some binding calls cover weakened binding; strength is not graded here. For part of these data: Tags and fused reporters may be left off the sequences shown.
# T1: AviTag-His6-MBP-TEVsite-14-3-3γ (human, UniProt P61981 1-247)
# T1 sequence (looked up): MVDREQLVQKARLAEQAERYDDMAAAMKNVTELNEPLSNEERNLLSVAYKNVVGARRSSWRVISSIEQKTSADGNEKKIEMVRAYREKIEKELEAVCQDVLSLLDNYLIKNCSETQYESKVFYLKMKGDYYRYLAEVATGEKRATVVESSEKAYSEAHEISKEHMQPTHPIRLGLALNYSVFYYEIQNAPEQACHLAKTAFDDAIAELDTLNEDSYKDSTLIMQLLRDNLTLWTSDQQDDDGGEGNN
# T2: AviTag-His6-MBP-TEVsite-14-3-3ε (human, UniProt P62258 1-255)
# T2 sequence (looked up): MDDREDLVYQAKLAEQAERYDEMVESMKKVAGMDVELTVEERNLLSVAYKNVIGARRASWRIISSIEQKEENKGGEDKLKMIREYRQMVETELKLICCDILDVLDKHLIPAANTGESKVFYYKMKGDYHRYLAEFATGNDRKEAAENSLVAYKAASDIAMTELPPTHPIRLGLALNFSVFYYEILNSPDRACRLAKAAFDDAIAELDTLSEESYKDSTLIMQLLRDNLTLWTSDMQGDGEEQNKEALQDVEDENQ
# T3: AviTag-His6-MBP-TEVsite-14-3-3η (human) (UniProt Q04917)
# T3 sequence: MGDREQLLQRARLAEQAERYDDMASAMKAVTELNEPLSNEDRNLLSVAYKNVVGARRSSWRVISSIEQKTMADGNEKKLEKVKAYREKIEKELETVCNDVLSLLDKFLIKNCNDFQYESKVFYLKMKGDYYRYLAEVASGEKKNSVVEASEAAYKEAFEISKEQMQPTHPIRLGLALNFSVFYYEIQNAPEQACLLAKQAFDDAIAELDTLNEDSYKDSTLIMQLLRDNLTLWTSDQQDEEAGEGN
# T4: AviTag-His6-MBP-TEVsite-14-3-3τ (human) (UniProt P27348)
# T4 sequence: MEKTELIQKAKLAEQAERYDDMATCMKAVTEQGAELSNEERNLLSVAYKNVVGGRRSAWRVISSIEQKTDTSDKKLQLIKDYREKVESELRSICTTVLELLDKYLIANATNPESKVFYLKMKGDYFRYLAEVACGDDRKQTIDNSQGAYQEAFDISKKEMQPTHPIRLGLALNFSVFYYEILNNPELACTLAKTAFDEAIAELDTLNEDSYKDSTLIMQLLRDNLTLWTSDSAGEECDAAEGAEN
# Experiments:
# Experiment in all cases: Holdup Multiplex
# [1] = target: T1, AviTag-His6-MBP-TEVsite-14-3-3γ
# [2] = target: T2, AviTag-His6-MBP-TEVsite-14-3-3ε
# [3] = target: AviTag-His6-MBP-TEVsite-14-3-3β (human) (UniProt P31946)
# [4] = target: T3, AviTag-His6-MBP-TEVsite-14-3-3η (human)
# [5] = target: AviTag-His6-MBP-TEVsite-14-3-3ζ (human) (UniProt P63104)
# [6] = target: T4, AviTag-His6-MBP-TEVsite-14-3-3τ (human)
binding [1],binding [2],binding [3],binding [4],binding [5],binding [6],Binder
binds,binds,binds,binds,binds,binds,"LRRPHSVIGG (peptide, UniProt Q00537 70-79, phosphoserine at 75) [phosphopeptide centered on pSer75 from CDK17]"
binds,binds,binds,binds,binds,binds,"LSRTRSEPLP (peptide, UniProt Q8WUI4 353-362, phosphoserine at 358) [phosphopeptide centered on pSer358 from HDAC7]"
